Assay results reported in the supplement of paper PMC3682954.
“And” between values parts separate entries of the source, which are not always exact repeats. Identical values can stand only once. Counter-ions that a name gives are not always drawn. ± gives the standard deviation of the averaged measurements. Some of the results follow. Single values are uncertain, as repeats are few or missing.

Tested on: RAW 264.7
Assay: HMGB1-induced TNF-alpha production relative to HMGB1-stimulated control; higher = more TNF-alpha secretion (less inhibition)
Conditions: stimulus: HMGB1 5 ug/ml, 18 h
[1] = compound concentration: 1 ug/ml

SMILES | HMGB1-induced TNF-alpha production (compound concentration: 3 uM) | HMGB1-induced TNF-alpha production [1]
CCN1CCN(c2cc3c(cc2F)c(=O)c(C(=O)O)cn3C2CC2)CC1 [Enrofloxacin] | 94.7% | 
CCN1CCN(c2cc3c(cc2F)c(=O)c(C(=O)O)cn3C2CC2)CC1 | 102 ± 7.2% | 
Oc1ccc(OCc2ccccc2)cc1 [Monobenzone] | 116% | 
CCCn1c(=O)c2c(ncn2C)n(CCC)c1=O [1,3-Dipropyl-7-methylxanthine] | 79.6% | 
C[C@H]1C[C@H]2[C@@H]3CCC4=CC(=O)C=C[C@]4(C)[C@@]3(F)[C@@H](O)C[C@]2(C)[C@@]1(O)C(=O)CO | 38.7% | 
C[C@H]1C[C@H]2[C@@H]3CCC4=CC(=O)C=C[C@]4(C)[C@@]3(F)[C@@H](O)C[C@]2(C)[C@@]1(O)C(=O)CO [Betamethasone] | 37.6 ± 12% | 
CC(C)C1=CC2=CC[C@@H]3[C@](C)(CCC[C@@]3(C)C(=O)O)[C@H]2CC1 [Abietic acid] |  | 54.8%
COc1cc(O)c2c(=O)cc(-c3ccccc3)oc2c1 |  | 75.5%
CC(=O)OCC1OC(Oc2cc(OC(C)=O)c3c(=O)c(-c4ccc(OC(C)=O)c(OC(C)=O)c4)coc3c2)C(OC(C)=O)C(OC(C)=O)C1OC(C)=O (centres undefined) [Orobole 7-O-Glucoside, Acetate] |  | 91.1%
COC(=O)C1=C(C)NC(C)=C(C(=O)OCCCN2CCC(c3ccccc3)(c3ccccc3)CC2)[C@H]1c1cccc([N+](=O)[O-])c1 [Niguldipine] | 62.3% | 
COC(=O)Nc1nc2ccc(SC(C)C)cc2[nH]1 [Methiazole] | 159% | 
C=C1/C(=C\C=C2/CCC[C@]3(C)[C@@H]([C@H](C)/C=C/[C@@H](O)C4CC4)CC[C@@H]23)C[C@@H](O)C[C@@H]1O [Calcipotriene] | 72.3 ± 3.8% | 
C=C1/C(=C\C=C2/CCC[C@]3(C)[C@@H]([C@H](C)/C=C/[C@@H](O)C4CC4)CC[C@@H]23)C[C@@H](O)C[C@@H]1O | 95% | 
Cc1ccc(Cl)c(Nc2ccccc2C(=O)O)c1Cl [Meclofenamic acid sodium] | 114% | 
Cc1ccc(Cl)c(Nc2ccccc2C(=O)O)c1Cl | 101% | 
Cc1ccc(Cl)c(Nc2ccccc2C(=O)O)c1Cl [Meclofenamic acid sodium salt monohydrate] | 71.7% | 
O=C(NCCO[N+](=O)[O-])c1cccnc1 [Nicorandil] | 84.1 ± 16% | 
O=C(NCCO[N+](=O)[O-])c1cccnc1 | 112% | 
CCN1CCN(C(=O)N[C@@H](C(=O)N[C@@H]2C(=O)N3C(C(=O)O)=C(CSc4nnnn4C)CS[C@H]23)c2ccc(O)cc2)C(=O)C1=O [Cefoperazone acid] | 95.9% | 
CCN1CCN(C(=O)N[C@@H](C(=O)N[C@@H]2C(=O)N3C(C(=O)O)=C(CSc4nnnn4C)CS[C@H]23)c2ccc(O)cc2)C(=O)C1=O [Cefoperazone dihydrate] | 81.9% | 
CCN1CCN(C(=O)N[C@@H](C(=O)N[C@@H]2C(=O)N3C(C(=O)O)=C(CSc4nnnn4C)CS[C@H]23)c2ccc(O)cc2)C(=O)C1=O | 84.7% | 
CN(C)CCOc1ccc(/C(=C(/CCCl)c2ccccc2)c2ccccc2)cc1 | 95% and 90.1% | 

SMILES | HMGB1-induced TNF-alpha production (compound concentration: 3 uM) | HMGB1-induced TNF-alpha production [1]
CN(C)CCOc1ccc(/C(=C(/CCCl)c2ccccc2)c2ccccc2)cc1 [Toremifene] | 93.3 ± 14% | 
CO[C@@]12[C@H](COC(N)=O)C3=C(C(=O)C(C)=C(N)C3=O)N1C[C@@H]1N[C@@H]12 [Mitomycin C] | 123% | 
CO[C@@]12[C@H](COC(N)=O)C3=C(C(=O)C(C)=C(N)C3=O)N1C[C@@H]1N[C@@H]12 | 99.4 ± 17% | 
CC(C(=O)O)c1ccc(N2Cc3ccccc3C2=O)cc1 (centres undefined) | 90.8% | 
CC(C(=O)O)c1ccc(N2Cc3ccccc3C2=O)cc1 (centres undefined) [Indoprofen] | 104% | 
CC1=Nc2ccc(Cl)cc2S(=O)(=O)N1 [Diazoxide] | 92 ± 5.2% | 
CC1=Nc2ccc(Cl)cc2S(=O)(=O)N1 | 96.2 ± 2% | 
O=c1c(-c2ccc(O)cc2)coc2c([C@@H]3O[C@H](CO)[C@@H](O)[C@H](O)[C@H]3O)c(O)ccc12 [Puerarin] |  | 70%
CCn1nc(C(=O)O)c(=O)c2cc3c(cc21)OCO3 [Cinoxacin] | 89.6 ± 4.2% | 59.7%
CCn1nc(C(=O)O)c(=O)c2cc3c(cc21)OCO3 | 86% | 
Cc1cc(/C=C/c2ccc3cc(N(C)C)ccc3[n+]2C)c(C)n1-c1ccccc1 [Pyrvinium pamoate] | 78.3% | 
Cc1cc(/C=C/c2ccc3cc(N(C)C)ccc3[n+]2C)c(C)n1-c1ccccc1 | 110% | 
COCCOC(=O)C1=C(C)NC(C)=C(C(=O)OC/C=C/c2ccccc2)C1c1cccc([N+](=O)[O-])c1 (centres undefined) [Cilnidipine] | 90.5 ± 7.7% | 
CCCCNc1ccc(C(=O)OCCOCCOCCOCCOCCOCCOCCOCCOCCOC)cc1 [Benzonatate] | 74.5% | 
O=C(O)/C=C/c1ccc(Cn2ccnc2)cc1 | 103% and 83.5% | 
O=C(O)/C=C/c1ccc(Cn2ccnc2)cc1 [Ozagrel] | 140% | 
O=C(O)/C=C/c1ccc(Cn2ccnc2)cc1 [Ozagrel hydrochloride] | 89.7% | 
COC(=O)CC[C@@H](C)[C@H]1CC[C@H]2[C@@H]3CC[C@@H]4C[C@H](O)CC[C@]4(C)[C@H]3C[C@H](O)[C@]12C [Deoxycholic acid methyl ester] |  | 75.8%
CCCc1nc(C)c2c(=O)nc(-c3cc(S(=O)(=O)N4CCN(CC)CC4)ccc3OCC)[nH]n12 | 107% | 
CCCc1nc(C)c2c(=O)nc(-c3cc(S(=O)(=O)N4CCN(CC)CC4)ccc3OCC)[nH]n12 [Vardenafil] | 95.3 ± 17% | 
C[C@H]1CC2C3CCC4=CC(=O)C=C[C@]4(C)[C@@]3(F)[C@@H](O)C[C@]2(C)[C@@]1(O)C(=O)COP(=O)(O)O (some centres undefined) | 45% | 
